Binding data for 1 substance are collected here from publication PMC8011160.

By UniProt entry, the sequences of proteins in these tests, tags left out. Residues count along the entry.
UniProt P04985, residues 27-747: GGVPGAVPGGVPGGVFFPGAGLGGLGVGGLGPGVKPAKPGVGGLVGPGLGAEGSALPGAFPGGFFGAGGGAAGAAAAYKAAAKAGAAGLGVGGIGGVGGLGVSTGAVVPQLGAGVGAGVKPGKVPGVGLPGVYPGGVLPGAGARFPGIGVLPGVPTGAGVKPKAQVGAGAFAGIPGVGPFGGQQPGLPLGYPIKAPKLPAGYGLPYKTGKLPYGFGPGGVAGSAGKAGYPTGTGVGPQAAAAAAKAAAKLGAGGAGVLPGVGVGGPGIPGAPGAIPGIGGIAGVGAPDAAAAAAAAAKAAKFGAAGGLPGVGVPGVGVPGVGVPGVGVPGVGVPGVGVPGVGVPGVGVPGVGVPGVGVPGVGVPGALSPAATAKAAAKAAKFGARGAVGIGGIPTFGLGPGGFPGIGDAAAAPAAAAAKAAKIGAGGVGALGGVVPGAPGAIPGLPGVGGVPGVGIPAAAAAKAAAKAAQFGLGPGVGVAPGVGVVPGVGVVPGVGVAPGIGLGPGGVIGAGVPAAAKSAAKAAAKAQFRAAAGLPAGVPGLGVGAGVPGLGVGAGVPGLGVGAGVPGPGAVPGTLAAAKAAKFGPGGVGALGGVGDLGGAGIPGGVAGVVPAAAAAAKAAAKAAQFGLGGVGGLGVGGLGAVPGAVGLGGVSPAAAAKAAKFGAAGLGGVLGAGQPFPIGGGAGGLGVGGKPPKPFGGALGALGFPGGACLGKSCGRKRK
UniProt P02769, residues 25-607: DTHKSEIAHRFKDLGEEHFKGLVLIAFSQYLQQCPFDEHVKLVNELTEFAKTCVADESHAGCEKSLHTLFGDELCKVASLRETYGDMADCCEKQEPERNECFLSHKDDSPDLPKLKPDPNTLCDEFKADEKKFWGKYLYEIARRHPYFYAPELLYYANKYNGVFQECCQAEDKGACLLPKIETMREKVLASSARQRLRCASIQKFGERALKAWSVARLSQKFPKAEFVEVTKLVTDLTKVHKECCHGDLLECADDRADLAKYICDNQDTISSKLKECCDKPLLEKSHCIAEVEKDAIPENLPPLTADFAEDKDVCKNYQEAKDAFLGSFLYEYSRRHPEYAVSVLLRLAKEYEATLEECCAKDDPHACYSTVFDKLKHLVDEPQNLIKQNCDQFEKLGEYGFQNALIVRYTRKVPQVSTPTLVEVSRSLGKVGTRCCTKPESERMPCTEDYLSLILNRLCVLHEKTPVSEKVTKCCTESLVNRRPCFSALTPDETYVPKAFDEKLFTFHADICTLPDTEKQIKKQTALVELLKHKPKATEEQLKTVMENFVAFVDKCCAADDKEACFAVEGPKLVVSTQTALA

These are yes or no findings as the source states them, for the method shown.

The target of this experiment is elastin (purified from bovine neck ligament) (bovine) (UniProt P04985). In words: co-sedimentation; 0.5, 1, 5 and 10 mg insoluble elastin mixed with 40 μg protein in 400 μl PBS, 60 min at 4 °C; centrifuged 20 min at 18,000 x g; supernatant (unbound) and washed pellet (bound) on 12% SDS-PAGE; both purified.

As for “Bovine serum albumin (BSA) (from UniProt P02769 25-607)”, the binding entry is reported as “no binding (tested: 40 μg in 400 μl)”.
